Counter-ions that a name gives are not always drawn.
Conditions: human, 4 h, 10 mg/mL, pH 7.4

With `CCN(CC)CC(=O)Nc1c(C)cccc1C` [lidocaine hydrochloride] the “factor of enhancement of transdermal delivery as compared with the control” value was “approximately 4”.
